In this experiment the target is SKAP55 homologue (SKAP-HOM) (mouse (endogenous in Wehi 231)) (UniProt Q3UND0). Briefly: co-IP; SKAP-HOM immunoprecipitated from lysates of unstimulated Wehi 231 co/kd cells (1% Triton X-100, 10 mM Tris pH 7.5, 150 mM NaCl, 5 mM EDTA, 10 mM NaF), 3 h at 4°C; Western blots for SKAP-HOM, HPK1 and RIAM.

Protein sequences, listed by entry. Tags and fused reporters are not part of them.
UniProt Q3UND0: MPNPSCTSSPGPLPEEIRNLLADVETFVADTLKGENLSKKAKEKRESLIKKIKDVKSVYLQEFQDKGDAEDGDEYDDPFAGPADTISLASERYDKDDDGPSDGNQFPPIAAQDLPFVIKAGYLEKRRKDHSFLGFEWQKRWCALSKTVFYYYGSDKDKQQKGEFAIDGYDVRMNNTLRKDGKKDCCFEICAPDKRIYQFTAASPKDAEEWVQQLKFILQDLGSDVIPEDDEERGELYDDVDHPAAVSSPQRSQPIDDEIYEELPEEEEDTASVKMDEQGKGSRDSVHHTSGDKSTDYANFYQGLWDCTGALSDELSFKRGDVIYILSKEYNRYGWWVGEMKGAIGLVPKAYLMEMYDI
UniProt P70218: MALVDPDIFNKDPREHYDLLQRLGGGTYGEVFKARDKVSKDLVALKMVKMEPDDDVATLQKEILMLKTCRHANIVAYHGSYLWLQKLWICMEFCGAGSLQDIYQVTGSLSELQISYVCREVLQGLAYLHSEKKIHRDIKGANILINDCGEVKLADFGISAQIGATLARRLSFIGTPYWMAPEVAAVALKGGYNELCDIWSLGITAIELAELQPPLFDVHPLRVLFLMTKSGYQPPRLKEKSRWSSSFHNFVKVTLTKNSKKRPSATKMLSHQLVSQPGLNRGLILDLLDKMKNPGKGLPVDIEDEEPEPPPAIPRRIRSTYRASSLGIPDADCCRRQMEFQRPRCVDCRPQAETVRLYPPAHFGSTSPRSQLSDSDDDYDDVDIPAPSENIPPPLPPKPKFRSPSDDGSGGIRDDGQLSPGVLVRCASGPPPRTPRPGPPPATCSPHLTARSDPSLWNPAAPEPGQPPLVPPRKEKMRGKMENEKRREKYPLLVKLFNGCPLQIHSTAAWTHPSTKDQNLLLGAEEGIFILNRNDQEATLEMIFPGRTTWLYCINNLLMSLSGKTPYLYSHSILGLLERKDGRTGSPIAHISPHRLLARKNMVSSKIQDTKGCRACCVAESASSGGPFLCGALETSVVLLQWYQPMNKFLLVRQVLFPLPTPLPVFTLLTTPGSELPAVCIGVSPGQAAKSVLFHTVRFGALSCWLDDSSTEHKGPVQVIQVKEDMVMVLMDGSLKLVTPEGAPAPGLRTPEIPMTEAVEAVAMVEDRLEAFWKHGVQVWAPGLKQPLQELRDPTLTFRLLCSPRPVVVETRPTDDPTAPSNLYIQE

No constants are given. Whether binding was seen depends on the method and setting. In cells and extracts the contact can be indirect. Some entries that bind do so weakly or less than the wild type.

For “Hematopoietic progenitor kinase 1 (HPK1) (from UniProt P70218 1-827)”, the binding entry is reported as “binds”.
